{"source": "paper PMC7862231", "target": "T1, Mxi1, bait of the tandem affinity purification (human) (UniProt P50539)", "T1 sequence": "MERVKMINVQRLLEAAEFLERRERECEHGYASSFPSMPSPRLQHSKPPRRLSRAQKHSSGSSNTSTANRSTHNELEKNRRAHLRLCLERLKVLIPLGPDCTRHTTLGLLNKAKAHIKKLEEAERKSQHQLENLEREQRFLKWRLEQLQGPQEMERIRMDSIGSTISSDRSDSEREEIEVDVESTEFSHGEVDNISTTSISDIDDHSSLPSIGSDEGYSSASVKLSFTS", "test": "affinity purification with mass spectrometry; tandem affinity purification/MS analysis to identify Mxi1-binding proteins, conducted previously (ref. 20); hit shown in Supplementary Fig. 1", "note": "No constants are given. Whether binding was seen depends on the method and setting. In cells and extracts the contact can be indirect. Here binding means that the protein was enriched with, or labelled near, the bait; the list need not be complete.", "data": [{"binder": "UBE2O found in the tandem affinity purification of Mxi1 (enzyme, UniProt Q9C0C9 1-1292) MADPAAPTPAAPAPAQAPAPAPEAVPAPAAAPVPAPAPASDSASGPSSDSGPEAGSQRLLFSHDLVSGRYRGSVHFGLVRLIHGEDSDSEGEEEGRGSSGCSEAGGAGHEEGRASPLRRGYVRVQWYPEGVKQHVKETKLKLEDRSVVPRDVVRHMRSTDSQCGTVIDVNIDCAVKLIGTNCIIYPVNSKDLQHIWPFMYGDYIAYDCWLGKVYDLKNQIILKLSNGARCSMNTEDGAKLYDVCPHVSDSGLFFDDSYGFYPGQVLIGPAKIFSSVQWLSGVKPVLSTKSKFRVVVEEVQVVELKVTWITKSFCPGGTDSVSPPPSVITQENLGRVKRLGCFDHAQRQLGERCLYVFPAKVEPAKIAWECPEKNCAQGEGSMAKKVKRLLKKQVVRIMSCSPDTQCSRDHSMEDPDKKGESKTKSEAESASPEETPDGSASPVEMQDEGAEEPHEAGEQLPPFLLKEGRDDRLHSAEQDADDEAADDTDDTSSVTSSASSTTSSQSGSGTSRKKSIPLSIKNLKRKHKRKKNKITRDFKPGDRVAVEVVTTMTSADVMWQDGSVECNIRSNDLFPVHHLDNNEFCPGDFVVDKRVQSCPDPAVYGVVQSGDHIGRTCMVKWFKLRPSGDDVELIGEEEDVSVYDIADHPDFRFRTTDIVIRIGNTEDGAPHKEDEPSVGQVARVDVSSKVEVVWADNSKTIILPQHLYNIESEIEESDYDSVEGSTSGASSDEWEDDSDSWETDNGLVEDEHPKIEEPPIPPLEQPVAPEDKGVVISEEAATAAVQGAVAMAAPMAGLMEKAGKDGPPKSFRELKEAIKILESLKNMTVEQLLTGSPTSPTVEPEKPTREKKFLDDIKKLQENLKKTLDNVAIVEEEKMEAVPDVERKEDKPEGQSPVKAEWPSETPVLCQQCGGKPGVTFTSAKGEVFSVLEFAPSNHSFKKIEFQPPEAKKFFSTVRKEMALLATSLPEGIMVKTFEDRMDLFSALIKGPTRTPYEDGLYLFDIQLPNIYPAVPPHFCYLSQCSGRLNPNLYDNGKVCVSLLGTWIGKGTERWTSKSSLLQVLISIQGLILVNEPYYNEAGFDSDRGLQEGYENSRCYNEMALIRVVQSMTQLVRRPPEVFEQEIRQHFSTGGWRLVNRIESWLETHALLEKAQALPNGVPKASSSPEPPAVAELSDSGQQEPEDGGPAPGEASQGSDSEGGAQGLASASRDHTDQTSETAPDASVPPSVKPKKRRKSYRSFLPEKSGYPDIGFPLFPLSKGFIKSIRGVLTQFRAALLEAGMPECTEDK", "values": [{"measurement": "binding", "value": "binds"}]}]}
